# Cell number after 72 h of treatment

Values as published with doi:10.1371/journal.pone.0140310, rounded.

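Human melanoma cell lines in 1,536-well plates were treated with one drug for 72 h, then fixed, stained and imaged. Each value is the count of nuclei relative to DMSO-treated wells, in %, so that 100 equals the control. Concentrations were fixed for each drug; these are the higher of two levels. These are primary screening values without error estimates.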 Only some of the drugs and lines screened are listed, without regard to their results.

| Drug | WM115 | MZ2-MEL | C32 |
|---|---|---|---|
| Cn1cc(/C=C2\C(=O)Nc3cccnc32)c2ccccc21 at 2 µM | 96.2 | 94.7 | 110 |
| O=c1[nH]nc(Sc2ncc([N+](=O)[O-])s2)n1-c1ccc2c(c1)OCCO2 at 1 µM | 96.8 | 94.2 | 83.1 |
| Cc1cn(-c2cc(NC(=O)c3ccc(C)c(Nc4nccc(-c5cccnc5)n4)c3)cc(C(F)(F)F)c2)cn1 at 1 µM | 132 | 129 | 102 |
| O=C(Oc1ccc([N+](=O)[O-])cc1)N1CCC(C(O)(c2ccc3c(c2)OCO3)c2ccc3c(c2)OCO3)CC1 at 5 µM | 105 | 102 | 111 |